In PMC1899224:
These are yes or no findings as the source states them, for the method shown. In cells and extracts the contact can be indirect. Some results given as binding are weak or reduced against the parent protein; the word gives no strength.

By UniProt entry, the sequences of proteins in these tests, tags left out.
UniProt Q7TQN4: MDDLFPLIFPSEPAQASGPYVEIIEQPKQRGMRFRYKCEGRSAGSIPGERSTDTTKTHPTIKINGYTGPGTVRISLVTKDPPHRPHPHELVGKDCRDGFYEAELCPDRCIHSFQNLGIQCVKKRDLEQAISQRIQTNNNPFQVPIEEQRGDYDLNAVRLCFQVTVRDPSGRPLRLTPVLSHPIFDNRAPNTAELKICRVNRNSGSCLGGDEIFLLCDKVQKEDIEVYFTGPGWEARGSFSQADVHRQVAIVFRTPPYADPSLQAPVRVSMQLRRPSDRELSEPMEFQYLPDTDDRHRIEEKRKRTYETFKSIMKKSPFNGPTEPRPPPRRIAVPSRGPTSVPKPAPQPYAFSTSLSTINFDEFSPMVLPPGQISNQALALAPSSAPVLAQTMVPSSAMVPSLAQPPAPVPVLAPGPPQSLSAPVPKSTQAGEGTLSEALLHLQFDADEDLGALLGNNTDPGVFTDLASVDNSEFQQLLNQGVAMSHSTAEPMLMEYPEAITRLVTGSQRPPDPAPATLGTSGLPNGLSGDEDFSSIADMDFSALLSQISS
UniProt Q04206: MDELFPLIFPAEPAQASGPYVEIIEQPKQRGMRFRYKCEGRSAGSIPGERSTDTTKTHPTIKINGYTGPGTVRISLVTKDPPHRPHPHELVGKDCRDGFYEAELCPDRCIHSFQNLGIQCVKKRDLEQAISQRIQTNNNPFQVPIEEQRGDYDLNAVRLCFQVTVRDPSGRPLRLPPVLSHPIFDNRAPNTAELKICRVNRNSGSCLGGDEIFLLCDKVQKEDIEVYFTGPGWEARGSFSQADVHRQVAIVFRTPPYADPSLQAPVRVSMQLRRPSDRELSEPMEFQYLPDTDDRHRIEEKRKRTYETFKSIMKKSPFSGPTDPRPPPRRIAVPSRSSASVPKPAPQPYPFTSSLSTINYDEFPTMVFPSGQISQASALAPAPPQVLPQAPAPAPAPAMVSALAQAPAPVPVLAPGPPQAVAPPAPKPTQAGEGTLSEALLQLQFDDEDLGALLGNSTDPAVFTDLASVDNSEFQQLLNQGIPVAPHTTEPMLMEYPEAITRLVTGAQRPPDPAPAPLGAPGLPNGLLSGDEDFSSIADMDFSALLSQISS
UniProt Q6AYH5: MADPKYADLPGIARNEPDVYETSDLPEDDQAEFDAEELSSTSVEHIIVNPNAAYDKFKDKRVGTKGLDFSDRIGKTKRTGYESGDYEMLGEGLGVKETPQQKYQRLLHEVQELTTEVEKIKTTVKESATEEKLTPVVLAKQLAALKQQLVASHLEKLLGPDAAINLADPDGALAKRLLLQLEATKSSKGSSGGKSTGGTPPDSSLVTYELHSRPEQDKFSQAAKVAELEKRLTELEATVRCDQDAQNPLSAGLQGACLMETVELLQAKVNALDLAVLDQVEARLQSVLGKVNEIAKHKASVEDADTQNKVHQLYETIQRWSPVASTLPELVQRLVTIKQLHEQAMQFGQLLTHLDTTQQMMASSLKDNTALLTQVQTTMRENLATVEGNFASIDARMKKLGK
UniProt P28023: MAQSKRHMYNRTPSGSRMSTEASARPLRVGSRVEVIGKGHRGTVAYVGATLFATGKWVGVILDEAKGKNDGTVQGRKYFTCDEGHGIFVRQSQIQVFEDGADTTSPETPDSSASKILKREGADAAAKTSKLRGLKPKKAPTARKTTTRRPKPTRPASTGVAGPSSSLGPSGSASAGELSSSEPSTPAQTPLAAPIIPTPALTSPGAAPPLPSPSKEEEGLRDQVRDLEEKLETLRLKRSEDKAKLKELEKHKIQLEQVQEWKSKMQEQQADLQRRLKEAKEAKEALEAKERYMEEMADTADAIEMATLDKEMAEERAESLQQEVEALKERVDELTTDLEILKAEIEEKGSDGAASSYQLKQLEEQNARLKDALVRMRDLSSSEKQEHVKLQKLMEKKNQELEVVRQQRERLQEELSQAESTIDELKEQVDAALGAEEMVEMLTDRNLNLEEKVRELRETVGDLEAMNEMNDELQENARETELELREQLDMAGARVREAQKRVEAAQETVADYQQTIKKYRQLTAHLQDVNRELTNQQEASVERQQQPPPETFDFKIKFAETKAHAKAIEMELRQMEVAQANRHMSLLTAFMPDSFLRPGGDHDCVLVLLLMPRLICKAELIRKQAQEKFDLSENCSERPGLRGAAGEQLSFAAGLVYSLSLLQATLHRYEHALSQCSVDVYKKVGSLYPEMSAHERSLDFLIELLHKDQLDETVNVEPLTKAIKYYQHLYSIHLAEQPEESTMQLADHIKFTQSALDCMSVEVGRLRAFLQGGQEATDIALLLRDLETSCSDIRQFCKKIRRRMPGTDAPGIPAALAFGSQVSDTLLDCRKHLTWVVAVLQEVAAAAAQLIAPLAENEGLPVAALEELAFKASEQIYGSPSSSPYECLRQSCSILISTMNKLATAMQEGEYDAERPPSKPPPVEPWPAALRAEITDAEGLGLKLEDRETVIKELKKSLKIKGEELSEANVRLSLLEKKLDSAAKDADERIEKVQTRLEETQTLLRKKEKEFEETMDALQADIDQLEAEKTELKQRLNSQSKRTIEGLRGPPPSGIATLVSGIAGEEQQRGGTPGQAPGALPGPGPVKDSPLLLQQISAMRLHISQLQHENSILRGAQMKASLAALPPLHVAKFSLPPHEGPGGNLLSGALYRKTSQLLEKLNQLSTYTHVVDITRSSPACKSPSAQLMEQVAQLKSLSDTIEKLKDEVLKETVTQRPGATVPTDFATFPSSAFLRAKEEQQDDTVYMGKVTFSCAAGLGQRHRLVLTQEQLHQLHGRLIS

What was measured:
[1] = target: NF-κB p65 (rat (endogenous in rat brain)) (UniProt Q7TQN4); assay: co-IP; 10 mg soluble rat brain extract (50 mM HEPES, 150 mM NaCl, 2 mM EGTA, 0.5% Triton X-100) cross-linked with DSP (0.5 mg/ml, 30 min on ice), precipitated with monoclonal anti-NF-κB p65 (sc-8008) on Protein G-Sepharose, 2 hr at 4°C; Western blot; control non-immune mouse IgG1
[2] = target: Polyhistidine-tagged wild-type p65 (UniProt Q04206); assay: pull-down; 50 µg purified His-tagged p65 immobilized on 50 µl Ni-CAM beads, incubated with 5 mg pre-cleared rat brain extract in 400 µl; eluted with imidazole buffer; SDS-PAGE and Western blot; only the target purified

binding [1]	binding [2]	Substance
binds	binds	dynactin p50 (Dynamitin) (from UniProt Q6AYH5 1-402)
binds		p150^Glued (from UniProt P28023 1-1280)
